Reference: PubChem BioAssay AID652272 (Drosophila RNAi Screening Center, 2013)
The screen tested about 21,000 reagents; shown is an unselected part of those with a known target gene and a result. Of all reagents, 503 (2.4%) were called active. 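Raw plate light values, not normalised; calls rest on replicate z-scores that were not deposited; hits include reporter decreases as well as increases.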 Names joined by + are all predicted targets of the reagent. Reagent sequences are not shown. The record does not give: the amount of reagent, the time to read-out.

- Screen: 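Finding fly genes that regulate Hedgehog signal transduction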 (primary screen)
- System: Drosophila clone 8 (Cl8) cells
- Reagent: long dsRNA against Drosophila genes
- Measurement: 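Firefly light from a Hedgehog-responsive ptc promoter reporter and Renilla reference light, both read on a plate reader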
- Scale: firefly Hh reporter signal: higher = more ptc reporter light; Renilla reference signal: higher = more Renilla control light
- Rule for the call: 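Called a hit if the two-replicate mean z-score lies below -2 or above +3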
- Meaning of the calls: active = hit: reporter lowered or raised; inactive = not a hit

Target gene | PubChem SID | firefly Hh reporter signal, replicate 1 | firefly Hh reporter signal, replicate 2 | firefly Hh reporter signal, replicate 3 | Renilla reference signal, replicate 1 | Renilla reference signal, replicate 2 | Outcome
LSm7 (GeneID 35003) | SID104182043 | 1.13e5 | 41097 | – | 3170 | 4389 | inactive
CG1750 (GeneID 43699) | SID104195032 | 63437 | 63997 | – | 1303 | 1872 | inactive
CG42650 (GeneID 10178825) | SID104192254 | 1.92e5 | – | – | 3570 | – | inactive
CG41020 (retired record) (GeneID 5740564) | SID104200658 | 5.89e5 | 2.24e5 | – | 34001 | 5219 | inactive
CG15431 (GeneID 33646) | SID104180238 | 1.11e5 | 50013 | – | 2896 | 5067 | inactive
CG10140 (GeneID 39511) | SID104189496 | 64711 | 62709 | 58348 | 6908 | 4210 | inactive
Ndf (GeneID 192507) | SID104182567 | 80534 | 32496 | – | 3344 | 1729 | inactive
CG17803 (GeneID 42141) | SID104195067 | 7.64e5 | 9.00e5 | 1.56e5 | 46571 | 5895 | inactive
Ork1 (GeneID 32020) | SID104200058 | 95778 | 87381 | – | 2105 | 2032 | inactive
ND-ASHI (GeneID 31604) | SID104198083 | 1.05e5 | 3.62e5 | – | 3981 | 12695 | inactive
Srx (GeneID 32768) | SID104199797 | 92722 | 2.44e5 | – | 2981 | 9936 | inactive
gudu (GeneID 34014) | SID104182612 | 1.45e5 | 76033 | – | 3667 | 7522 | inactive
Polr2E (GeneID 36160) | SID104185892 | 75428 | 30752 | – | 1595 | 1731 | inactive
CG14356 (GeneID 41722) | SID104194611 | 1.02e5 | 1.26e5 | – | 3365 | 3136 | inactive
acs (GeneID 38264) | SID104187977 | 96999 | 30444 | – | 4148 | 3079 | inactive
CR43670 + CR43671 + CR43669 | SID104181346 | 1.25e5 | 3.48e5 | – | 3568 | 15680 | inactive
CR43670 + CR43671 + CR43669 | SID104181348 | 1.31e5 | 2.65e5 | – | 3634 | 11798 | inactive
osa (GeneID 42130) | SID104196814 | 1.90e5 | 96752 | – | 5979 | 2930 | inactive
Bx (GeneID 32846) | SID104199142 | 60262 | 55997 | – | 1908 | 2897 | inactive
Bx (GeneID 32846) | SID104199416 | 96508 | 2.24e5 | – | 3670 | 9612 | inactive
CG14325 (GeneID 42123) | SID104194596 | 5.60e5 | 1.40e5 | – | 24727 | 3696 | inactive
Hip1 (GeneID 39450) | SID104189604 | 1.14e5 | 1.04e5 | – | 4354 | 4072 | inactive
CG8746 (GeneID 35867) | SID104187049 | 96514 | 55700 | – | 2064 | 3984 | inactive

Targets listed so far whose target name starts with N or n (2):
Target gene | PubChem SID | firefly Hh reporter signal, replicate 1 | firefly Hh reporter signal, replicate 2 | firefly Hh reporter signal, replicate 3 | Renilla reference signal, replicate 1 | Renilla reference signal, replicate 2 | Outcome
Ndf (GeneID 192507) | SID104182567 | 80534 | 32496 | – | 3344 | 1729 | inactive
ND-ASHI (GeneID 31604) | SID104198083 | 1.05e5 | 3.62e5 | – | 3981 | 12695 | inactive
